The values below come from publication PMC6561548.

Chains of the proteins cited; added tags and fusions are not shown. Lines headed by an entry give the natural chain unless they say otherwise; changes in a name come on top. Residues count along the entry.
UniProt P01833, 19-638, stated change not applied: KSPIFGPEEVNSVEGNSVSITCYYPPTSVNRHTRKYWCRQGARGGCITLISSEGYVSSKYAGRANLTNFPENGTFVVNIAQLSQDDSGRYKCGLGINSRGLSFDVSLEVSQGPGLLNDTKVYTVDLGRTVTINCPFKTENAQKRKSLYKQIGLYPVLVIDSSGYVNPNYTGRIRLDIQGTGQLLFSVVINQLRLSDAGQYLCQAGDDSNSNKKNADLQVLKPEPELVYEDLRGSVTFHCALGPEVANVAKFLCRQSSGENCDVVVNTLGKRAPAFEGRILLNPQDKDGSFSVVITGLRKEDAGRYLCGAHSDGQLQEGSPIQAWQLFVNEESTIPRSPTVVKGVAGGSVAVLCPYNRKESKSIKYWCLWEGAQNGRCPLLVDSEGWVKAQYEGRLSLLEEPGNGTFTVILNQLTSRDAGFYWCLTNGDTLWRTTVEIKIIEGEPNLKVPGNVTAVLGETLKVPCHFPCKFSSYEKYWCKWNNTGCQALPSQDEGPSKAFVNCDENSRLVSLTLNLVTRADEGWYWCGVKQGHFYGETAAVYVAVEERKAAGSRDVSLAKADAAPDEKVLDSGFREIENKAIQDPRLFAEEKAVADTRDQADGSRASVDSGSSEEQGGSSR

These are yes or no findings as the source states them, for the method shown. In cells and extracts the contact can be indirect. A result given as binding can be weak or reduced; the word gives no strength.

The target of the experiment is Recombinant Human Polymeric Immunoglobulin Receptor/PIgR (C-Fc) CI09 protein (human) (UniProt P01833). The experiment is described as follows: co-IP; only the target purified.

On to “Slp encoded on plasmid pUC18::slp in the complemented strain O157Δslp-p:slp (from UniProt P37194)”, for which the binding entry is “binds”.
